From PMC2973830
Results are given in words; binding and its absence hold for the method and conditions named. Some binding calls cover weakened binding; strength is not graded here. Where a sequence is shown, tags or fusion partners need not be part of it.

T1: DIM-7 (as purified in the unpublished experiment) (N. crassa) (UniProt Q1K7K7)
T1 sequence: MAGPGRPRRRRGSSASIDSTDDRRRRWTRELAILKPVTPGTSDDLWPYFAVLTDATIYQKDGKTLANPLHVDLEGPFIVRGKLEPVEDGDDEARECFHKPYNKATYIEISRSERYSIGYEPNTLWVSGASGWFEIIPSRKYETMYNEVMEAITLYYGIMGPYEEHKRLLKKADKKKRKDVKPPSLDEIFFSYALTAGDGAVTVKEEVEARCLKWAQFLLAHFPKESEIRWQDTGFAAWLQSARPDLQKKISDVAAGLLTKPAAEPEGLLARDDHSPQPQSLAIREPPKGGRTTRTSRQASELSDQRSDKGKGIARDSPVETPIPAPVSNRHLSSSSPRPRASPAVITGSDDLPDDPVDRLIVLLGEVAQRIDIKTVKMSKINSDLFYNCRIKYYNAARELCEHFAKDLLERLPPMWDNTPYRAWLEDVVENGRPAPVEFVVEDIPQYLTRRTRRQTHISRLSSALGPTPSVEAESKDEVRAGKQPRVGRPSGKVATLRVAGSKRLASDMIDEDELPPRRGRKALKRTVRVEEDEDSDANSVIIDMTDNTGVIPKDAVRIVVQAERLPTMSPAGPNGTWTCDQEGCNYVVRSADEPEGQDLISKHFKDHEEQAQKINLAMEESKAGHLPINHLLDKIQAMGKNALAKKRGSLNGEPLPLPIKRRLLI

B1: histone H2B (protein, UniProt P37210 1-137)
chain: MPPKPADKKPASKAPATASKAPEKKDAGKKTAASGDKKKRTKARKETYSSYIYKVLKQVHPDTGISNRAMSILNSFVNDIFERVATEASKLAAYNKKSTISSREIQTSVRLILPGELAKHAVSEGTKAVTKYSSSTK

Molecular target: T1, DIM-7 (as purified in the unpublished experiment) (N. crassa)
Test: co-purification (method not told); histones co-purified with DIM-7; unpublished data of Z. Lewis and E. Selker

Molecule | binding
histone H2A (from UniProt Q8X132 1-134) | binds
B1 | binds
